Counter-ions that a name gives are not always drawn. Some of the results follow. This data set is noisy: repeats of one test often differ as much as different tests do.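 The cells are human U-2 OS cells that stably carry a GFP sensor with a nuclear import signal and a classical export signal. They were transfected to make PR50, a 50-repeat proline–arginine dipeptide protein from the ALS/FTD gene C9ORF72. Each well's nuclear-minus-cytoplasm GFP signal was scaled from in-plate DMSO (low) to PR-only wells (high), then scored against the other test wells on the plate; compounds scoring well below zero were called hits that reverse the PR effect.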

This assay concerns U-2 OS NCT-C biosensor cells expressing PR50. Put plainly: Z-score of normalised NCT-C biosensor translocation index in PR50-expressing cells; higher = more nuclear biosensor (more disrupted nuclear export). Particulars: 3 µM; 24 h.
Consider `COC1=CC(=O)O[C@@H](/C=C/c2ccccc2)C1` (racemic) [(±)-Kavain], for which the Z-score was inactive: -0.877.

Regarding `Oc1ccc2c3c1O[C@H]1[C@@H](O)CC[C@@]4(O)[C@@H](C2)N(CC2CCC2)CC[C@]314` [Nalbuphine·HCl], the Z-score is inactive: 1.56.

As to `O=C(O)CC[N+](=O)[O-]` [3-Nitropropionic acid], the Z-score is inactive: -0.859. Regarding `COC(=O)C[C@](O)(CCC(C)(C)O)C(=O)O[C@@H]1C(OC)=C[C@]23CCCN2CCc2cc4c(cc2[C@H]13)OCO4` [Harringtonine], the Z-score is inactive: -1.03. For `CN[C@@H]1Cc2cccc3[nH]c(=O)n(c23)C1` [Sumanirole maleate], the Z-score was inactive: -0.179. As for `NC(=O)c1cc(N2CC2)c([N+](=O)[O-])cc1[N+](=O)[O-]`, the figure is inactive: 2.71; as for `C[C@@H]1O[C@H](C[N+](C)(C)C)C[C@H]1O` (racemic) [(+-)-Muscarine chloride], inactive: -0.597; as for `C[C@@H]1O[C@H](C[N+](C)(C)C)C[C@H]1O` [(+)-Muscarine chloride], inactive: 0.0284. Consider `CP(=O)(O)C1=CCNCC1`, for which the Z-score is inactive: -0.453. As for `C=CCN1CC[C@]23c4c5ccc(O)c4O[C@H]2C(=O)CC[C@@]3(O)[C@H]1C5` [Naloxone·HCl], the figure is inactive: 0.397. Then `C=CCN1CC[C@]23c4c5ccc(O)c4O[C@H]2C(=O)CC[C@@]3(O)[C@H]1C5` [Naloxone hydrochloride], with inactive: -1.56. As for `COc1ccc2[nH]c3c(c2c1)CCNC3` [6-Methoxy-1,2,3,4- tetrahydro-9H- pyrido[3,4b] indole], the figure is inactive: 0.524; as for `CC[C@@H](C(=O)[C@@H](C)[C@@H](O)[C@H](C)[C@@H]1O[C@@H]([C@@H](CC)C(=O)O)CC[C@@H]1C)[C@H]1O[C@]2(C=C[C@@H](O)[C@]3(CC[C@@](C)([C@H]4CC[C@](O)(CC)[C@H](C)O4)O3)O2)[C@H](C)C[C@@H]1C` [Salinomycin], inactive: 1.7; as for `Cc1cccc(C)c1NC(=O)CN1CCCC1=O` [Nefiracetam], inactive: -0.0248. Regarding `NC(=O)CI` [Iodoacetamide], the Z-score was inactive: -0.205.

Turning to `CCCC[N+]1(C)[C@@H]2C[C@@H](OC(=O)[C@H](CO)c3ccccc3)C[C@H]1[C@@H]1O[C@@H]12` (stereo partly specified) [Scopolamine N-butylbromide], the Z-score was inactive: 0.615. `C[C@H]1CC[C@]2(NC1)O[C@H]1C[C@H]3[C@@H]4CC[C@H]5C[C@@H](O)CC[C@]5(C)[C@H]4CC[C@]3(C)[C@H]1[C@@H]2C` [Tomatidine]: the Z-score was inactive: 0.0832. As for `CN1CC[C@]2(CCN3CCc4c(oc5ccccc45)[C@@H]3C2)N(C)C1=O`, the figure is inactive: -0.545. As for `N#CC(C#N)=Cc1ccc(O)c(O)c1` [Tyrphostin 23], the figure is inactive: -0.134.

With `N=C(NCCC[C@H](N)C(=O)O)N[N+](=O)[O-]` [NG-Nitro-L- arginine], the Z-score was inactive: -0.362. Then `O=c1c2ccccc2[se]n1-c1ccccc1` [Ebselen], with inactive: -1.19; and `CCCN(CCC)C1Cc2cc(OC)c(OC)cc2C1`, with inactive: 0.249. Then `COC(=O)N1CCN(C(=O)Cc2ccc(Cl)c(Cl)c2)C(CN2CCCC2)C1` (stereo unspecified), with inactive: -1.17. Then `COc1c2c(cc3c1OCO3)CCN(C)C2` [Hydrocotarnine HBr], with inactive: -0.281; and `CCCCCCCCCCCCCC(=O)O[C@@H]1[C@@H](C)[C@@]2(O)[C@@H](C=C(CO)C[C@@]3(O)C(=O)C(C)=C[C@@H]23)[C@@H]2C(C)(C)[C@]12OC(C)=O` [4α-Phorbol 12-myristate 13-acetate], with inactive: 0.838. As to `COc1cc(=O)oc(/C=C/C=C/C=C/C(C)=C/[C@@]2(C)O[C@H](C)[C@](C)(O)[C@H]2O)c1C` [Citreoviridin], the Z-score was inactive: -0.351. As for `COC(=O)[C@@H](N)CCCNC(=N)N[N+](=O)[O-]` [NG-Nitro-L-arginine methyl ester HCl], the figure is inactive: -0.682; as for `CN1Cc2c(ccc3c2OCO3)[C@@H]2[C@H]1c1cc3c(cc1C[C@@H]2O)OCO3` [(+)-Chelidonine], inactive: 0.276. As for `CC(=O)O[C@H]1C[C@@H]2CC[C@@H]3[C@H](CC[C@@]4(C)[C@H]3C[C@H]([N+]3(C)CCCCC3)[C@@H]4OC(C)=O)[C@@]2(C)C[C@@H]1[N+]1(C)CCCCC1` [Pancuronium bromide], the figure is inactive: 0.302.

Consider `C[C@]12CC[C@H](O)C[C@H]1CC[C@@H]1[C@@H]2CC[C@]2(C)[C@@H](C3=CC(=O)OC3)[C@@H](O)C[C@]12O` [Gitoxigenin], for which the Z-score is inactive: 0.528. As for `CO[C@H]1[C@@H](O)[C@@H](C)O[C@H](O[C@H]2[C@H](Oc3cccc4c(O)c5c(=O)oc6ccc(C)c7c(=O)oc(c34)c5c67)O[C@H](C)[C@H](O)[C@@H]2O)[C@@H]1O` [Chartreusin], the figure is inactive: -0.0666; as for `O=C1CC[C@@]2(O)[C@H]3Cc4ccc(O)c5c4[C@@]2(CCN3CC2CC2)[C@H]1O5` [Naltrexone·HCl], inactive: 1.41; as for `O=C1CC[C@@]2(O)[C@H]3Cc4ccc(O)c5c4[C@@]2(CCN3CC2CC2)[C@H]1O5` [Naltrexone hydrochloride], inactive: 0.038. Take `CC1=C2C(=O)[C@H]3[C@@H](CC=C4C[C@@H](O)CC[C@@]43C)[C@@H]2CC[C@]12O[C@@H]1C[C@H](C)CN[C@H]1[C@H]2C` [Jervine]: the Z-score was inactive: -1.03. As for `COc1ccc2c(c1O)-c1c(OC)c(OC)cc3c1[C@H](C2)N(C)CC3` [(+)-Isocorydine hydrochloride], the figure is inactive: -0.0963. For `CN1CCN(C(=O)O[C@H]2c3nccnc3C(=O)N2c2ccc(Cl)cn2)CC1` [Eszopiclone], the Z-score is inactive: 0.724. Then `CC(=O)O[C@H]1[C@H]2[C@@H](OC(=O)Cc3ccccc3)[C@@H](C)C[C@]2(OC(C)=O)C(=O)/C(C)=C/[C@@H]2[C@H](CC[C@@]13CO3)C2(C)C` [Euphorbiasteroid], with inactive: -0.427; and `C[C@@H]1Cc2c(Cl)cc(C(=O)N[C@@H](Cc3ccccc3)C(=O)O)c(O)c2C(=O)O1` [Ochratoxin A], with inactive: 0.0921; and `Cn1c(CCCC(=O)O)nc2cc(N(CCCl)CCCl)ccc21` [Bendamustine·HCl], with inactive: 0.108. As for `Cn1c(CCCC(=O)O)nc2cc(N(CCCl)CCCl)ccc21` [Bendamustine hydrochloride], the figure is inactive: -0.0177; as for `Oc1ccc2c3c1O[C@H]1c4[nH]c5ccccc5c4C[C@@]4(O)[C@@H](C2)N(CC2CC2)CC[C@]314` [Naltrindole hydrochloride], inactive: 0.0568. As to `CC(NC(C)(C)C)C(=O)c1cccc(Cl)c1` (stereo unspecified) [Bupropion hydrochloride], the Z-score is inactive: 1.86.

Take `CC(NC(C)(C)C)C(=O)c1cccc(Cl)c1` (stereo unspecified) [Bupropion]: the Z-score is inactive: -0.075. With `COc1cc2c(c(OC)c1OC)-c1ccc(SC)c(=O)cc1[C@@H](NC(C)=O)CC2` [Thiocolchicine], the Z-score was inactive: 0.0649. As for `N[C@]1(C(=O)O)CC[C@H](C(=O)O)C1` (racemic) [trans-(±)-ACPD], the figure is inactive: 1.04.

For the compound `CCOC(=O)CC(SP(=S)(OC)OC)C(=O)OCC` (stereo unspecified) [Malathion], the Z-score was inactive: 0.0256. As for `CN1CC[C@@]2(C)c3cc(O)ccc3N(C)C12` (single isomer, unassigned; (-)) [(-)-Eseroline fumarate], the figure is inactive: -0.14; as for `NCC(CC(=O)O)c1ccc(Cl)cc1` (stereo unspecified) [Baclofen], inactive: -0.241; as for `CCN1C[C@]2(C)CC[C@H](O)[C@]34C1[C@@H](C[C@H]23)[C@@]1(O)C[C@H](OC)[C@H]2C[C@@H]4[C@@H]1[C@H]2O` [Karakoline], inactive: -0.0674. As to `CC(=O)[C@H]1CC[C@H]2[C@@H]3CC[C@H]4C[C@H](O)CC[C@]4(C)[C@H]3CC[C@]12C` [5alpha-Pregnan- 3alpha-ol-20-one], the Z-score was inactive: -0.394. With `CN(C)CCc1ccc(O)cc1` [Hordenine sulfate], the Z-score is inactive: 0.432. As for `COC1=C[C@@H]2[C@@H]3Cc4ccc(OC)c(O)c4[C@]2(CCN3C)CC1=O` [Sinomenine], the figure is inactive: -0.107. As for `CN1[C@@H]2C[C@@H](OC(=O)[C@H](CO)c3ccccc3)C[C@H]1[C@@H]1O[C@@H]12` [Scopolamine·HBr], the figure is inactive: 0.282; as for `CN1[C@@H]2C[C@@H](OC(=O)[C@H](CO)c3ccccc3)C[C@H]1[C@@H]1O[C@@H]12` [(-)-Scopolamine hydrobromide], inactive: -0.689. Then `O[C@H]1[C@H](O)[C@@H](O)CN2CC[C@H](O)[C@H]12` [Castanospermine], with inactive: -1.16; and `Cc1sc2c(c1C)C(c1ccc(Cl)cc1)=N[C@@H](CC(N)=O)c1nnc(C)n1-2`, with inactive: -0.619; and `CN1C[C@H](C(=O)N[C@]2(C)O[C@@]3(O)[C@@H]4CCCN4C(=O)[C@H](Cc4ccccc4)N3C2=O)C=C2c3cccc4[nH]cc(c34)C[C@H]21` [Ergotamine Tartrate], with inactive: -0.234. As to `N[C@@H]1C[C@H]1c1ccccc1` [Tranylcypromine hydrochloride], the Z-score is inactive: 1.2. Regarding `COc1cc(C(=O)OC2CC3CCC(C2)N3C)ccc1O` (stereo unspecified) [Fillalbin], the Z-score is inactive: -0.904.

Take `NCC(CC(=O)O)c1ccc(Cl)cc1` (racemic) [(±)-Baclofen]: the Z-score was inactive: 2.47. Regarding `C[C@H]1CC[C@@H]2[C@@H](C)[C@H]3[C@H](C[C@H]4[C@@H]5CC[C@H]6C[C@@H](O)CC[C@]6(C)[C@H]5CC[C@]34C)N2C1` [Demissidine], the Z-score is inactive: 0.499.

For the origin of these results see the supplement of paper PMC8616043.
